Measurements reported in PubChem BioAssay AID743121 (NCATS, 2013).
This is an unselected part of about 26,000 deposited reagents. Of all reagents, 167 (0.63%) got an active call. 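Calls are per gene from RSA p-values that are not deposited; an individual active-marked siRNA can sensitise only weakly.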 The numbers tell different reagents against one gene apart.

- Purpose: 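Genes whose silencing strengthens cell killing by camptothecin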 (primary screen)
- Cell system: MDA-MB-231 cells, a human breast cancer line
- Knock-down reagent: single siRNA against human genes, 20 nM siRNA (0.8 pmol per well)
- Duration: 120 h (drug added 48 h after transfection, read 72 h later)
- Challenge: camptothecin 20 nM (about EC30) for 72 h; vehicle 0.1% DMSO in parallel plates
- Measurement: 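Cell viability by ATP luminescence (CellTiter-Glo) as % of non-targeting siRNA wells, and the log2 ratio of viability without drug over viability with camptothecin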
- Scale: log2 vehicle/camptothecin viability: higher = stronger sensitisation to camptothecin; viability with camptothecin and viability without drug: higher = more viable cells
- Hit rule: 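Each gene scored by redundant siRNA activity (RSA) over its individual siRNA ratios; a gene is called active at p < 0.001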

no.	gene	reagent no.	log2 vehicle/camptothecin viability	viability with camptothecin (% of control)	viability without drug (% of control)	Outcome
1	HAND1	1	-0.174	58.6	52	inactive
2	HAND1	2	-0.408	64.9	48.9	inactive
3	HAND1	3	-0.583	84.8	56.6	inactive
4	HAND1	4	-0.0133	92.9	92.1	inactive
5	SELENOS	1	0.0366	90.1	92.4	inactive
6	SELENOS	2	-0.121	106	97.2	inactive
7	SELENOS	3	0.0741	83	87.4	inactive
8	SYNE2	1	-0.292	90.3	73.8	inactive
9	SYNE2	2	-0.0594	112	107	inactive
10	SYNE2	3	-0.0725	87.1	82.8	inactive
11	SYNE2	4	-0.561	46.4	31.5	inactive
12	IMPG2	1	-0.273	88.7	73.5	inactive
13	IMPG2	2	0.0586	96.5	100	inactive
14	IMPG2	3	-0.0564	79.9	76.9	inactive
15	IMPG2	4	0.123	95.8	104	inactive
16	THAP12	1	-0.366	69.1	53.6	inactive
17	THAP12	2	-0.379	114	88	inactive
18	THAP12	3	-0.125	65	59.6	inactive
19	THAP12	4	-0.469	72.1	52.1	inactive
20	TBL1XR1	1	-0.236	119	101	inactive
21	TBL1XR1	2	-0.106	24.7	22.9	inactive
22	TBL1XR1	3	-0.764	100	59.1	inactive
23	TBL1XR1	4	-0.345	44	34.7	inactive
24	GP6	1	-0.199	101	88	inactive
25	GP6	2	0.0367	80.7	82.8	inactive
26	GP6	3	-0.191	90.1	78.9	inactive
27	GP6	4	0.231	85.3	100	inactive
28	SCUBE3	1	0.452	26.3	35.9	inactive
29	SCUBE3	2	-0.0968	78.7	73.6	inactive
30	SCUBE3	3	-0.313	113	91.3	inactive
31	SCUBE3	4	-0.176	118	105	inactive
32	PYROXD1	1	-0.346	105	82.7	inactive
33	PYROXD1	2	-0.48	66.5	47.7	inactive
34	PYROXD1	3	-0.114	92.9	85.8	inactive
35	PYROXD1	4	-0.0524	99.3	95.8	inactive
36	CTSL	1	0.14	54.2	59.7	inactive
37	CTSL	2	-0.0356	79.3	77.3	inactive
38	CTSL	3	-0.296	113	92.2	inactive
39	CTSL	4	-0.314	76.1	61.2	inactive
40	CCR8	1	-0.364	46	35.8	inactive
41	CCR8	2	0.146	92.9	103	inactive
42	CDKN2B	1	0.701	33.1	53.8	inactive
43	CDKN2B	2	-0.159	88.3	79.1	inactive
44	CDKN2B	3	-0.0813	103	97.6	inactive
45	CDKN2B	4	-0.785	83.4	48.4	inactive
46	XAB2	1	-0.286	8.92	7.32	inactive
47	XAB2	2	-0.262	110	91.9	inactive
48	XAB2	3	-0.123	5.29	4.86	inactive
49	XAB2	4	-0.545	15.7	10.7	inactive
50	PIP5K1C	1	-0.149	69.9	63.1	inactive
51	PIP5K1C	2	0.179	57.1	64.6	inactive
52	PIP5K1C	3	-0.294	120	97.6	inactive
53	PIP5K1C	4	-0.0764	68.7	65.1	inactive
54	SMAD3	1	0.0432	90.2	92.9	inactive
55	SMAD3	2	-0.207	56.3	48.8	inactive
56	SMAD3	3	0.0676	92.5	96.9	inactive
57	SMAD3	4	0.318	62.8	78.2	inactive
58	PDK2	1	-0.161	90.2	80.7	inactive
59	PDK2	2	-0.538	101	69.8	inactive
60	PDK2	3	0.541	42.3	61.6	inactive
61	PDK2	4	-0.396	50.8	38.6	inactive
62	PIP5K1A	1	0.135	76.4	83.9	inactive
63	PIP5K1A	2	-0.131	53.7	49.1	inactive
64	PIP5K1A	3	0.197	87	99.7	inactive
65	PIP5K1A	4	-0.345	99	77.9	inactive
66	UBASH3A	1	-0.372	66.4	51.3	inactive
67	UBASH3A	2	-0.0508	38.8	37.5	inactive
68	UBASH3A	3	-0.786	38.2	22.1	inactive

Only “viability without drug (% of control)” (3 entries from above):
GP6 #1	88
GP6 #2	82.8
GP6 #3	78.9
